Results are given in words; binding and its absence hold for the method and conditions named. Binding calls can cover weak binding; strength is not graded here.
Legend:
[1] = biological target: Rps2 missing the N-terminal five amino acids, G4BD fusion (S. cerevisiae) (UniProt P25443); assay: two-hybrid; Yeast strain PJ69-4A; Rps2 variants C-terminally fused to the Gal4 DNA-binding domain, full-length Tsr4 C-terminally fused to the Gal4 activation domain, CEN low-copy plasmids; growth on -HLT (weak) and -ALT (strong), 3 days at 30 °C
[2] = biological target: Rps2 missing the N-terminal ten amino acids, G4BD fusion (S. cerevisiae) (UniProt P25443); assay: as above

Chains of the proteins cited; added tags and fusions are not shown. Lines headed by an entry give the natural chain unless they say otherwise; changes in a name come on top.
UniProt P25443: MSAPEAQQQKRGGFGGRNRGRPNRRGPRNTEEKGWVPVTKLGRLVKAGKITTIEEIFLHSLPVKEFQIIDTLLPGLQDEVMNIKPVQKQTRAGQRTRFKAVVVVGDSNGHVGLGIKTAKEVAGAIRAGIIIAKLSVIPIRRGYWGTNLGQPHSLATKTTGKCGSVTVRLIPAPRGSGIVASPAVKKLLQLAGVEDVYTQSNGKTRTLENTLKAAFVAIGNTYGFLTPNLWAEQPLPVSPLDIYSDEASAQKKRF

B1: full-length Tsr4-G4AD (protein, UniProt P25040 1-408)
chain: MSKIEELPPSDTDDHSYSSKPGDVFLAFVDAPVKETDDILVEDSFIGGEPKWLHPDSEPPAELLKCGACKSADNMKLLLQAFSPLDDEQMSAIQQRLGINNMSYINPQDDRVLYVFLCTECQRKGNSVRCIRGVKKNKNVDSLSEKMASTSLEKDFQINPFDLSNNSDSKCNAFSSNPFGGANANPFGADSINSNISQSKDEGKKKESATVSAKTARKLHDLQKDKEYDGNKCFKSCLLYVEEETFKNKKPAHLQLPKNLKIDKEALDLTGDEDLEKDPIKLDPRTEKLSKFLDDDTFQKFQEVVGYNPLQVLRYDLGGKPLLYAETKVDILSTVPRPGYNPSSQRIFEMQLMPKMIFDLEEVVSVDNGMEWGTILVFTDVENYMPEFDEHGVGYVEECVKVQWESRT
binding [1]: binds
binding [2]: binds

Reference: publication PMC10377357 (2023)
